Some entries share one result that the patent states for a list of compounds.
What follows are compounds tested against T1, wt human NUAK1, full length (Homo sapiens, UniProt O60285) (assay: TR-FRET LanthaScreen Eu Kinase Binding Assay, NUAK1 (Example 72)). Conditions: Example 72 text; read-out: IC50, Inhibitory Activity Toward NUAK1.
T1 construct: 8 nM wt human NUAK1, full length (ThermoFisher/USA); purchased ThermoFisher/USA
T1 sequence (O60285 1-661): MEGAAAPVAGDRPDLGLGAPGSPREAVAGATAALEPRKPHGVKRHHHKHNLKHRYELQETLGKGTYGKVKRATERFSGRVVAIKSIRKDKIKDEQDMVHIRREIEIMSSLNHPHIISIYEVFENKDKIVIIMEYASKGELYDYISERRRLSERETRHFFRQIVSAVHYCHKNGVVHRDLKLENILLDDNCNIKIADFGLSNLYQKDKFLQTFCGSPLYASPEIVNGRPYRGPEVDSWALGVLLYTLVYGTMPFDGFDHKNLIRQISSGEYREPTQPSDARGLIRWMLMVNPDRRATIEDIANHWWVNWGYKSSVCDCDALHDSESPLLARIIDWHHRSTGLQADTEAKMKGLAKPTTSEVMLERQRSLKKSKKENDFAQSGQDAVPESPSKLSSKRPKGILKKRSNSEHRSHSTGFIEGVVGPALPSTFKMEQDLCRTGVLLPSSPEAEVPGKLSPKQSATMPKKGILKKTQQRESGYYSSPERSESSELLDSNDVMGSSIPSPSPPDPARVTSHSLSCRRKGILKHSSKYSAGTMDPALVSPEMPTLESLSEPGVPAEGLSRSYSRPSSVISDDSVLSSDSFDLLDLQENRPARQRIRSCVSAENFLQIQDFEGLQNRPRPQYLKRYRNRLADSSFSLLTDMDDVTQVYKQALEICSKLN
Method: (§1) The compounds in Tables 5-6 were tested for their inhibitory effect on a set of kinases according to the following procedures.
The basic protocol for TR-FRET LanthaScreen Eu Kinase Binding Assay inhibitor studies were performed as follows. LanthaScreen Kinase Binding Assays (ThermoFisher/USA) to evaluate inhibitors were performed by addition of 5 μl of test compound in corresponding DMSO dilutions/5 μl of kinase/antibody mixture, 5 μl of tracer into 384 well small volume plates. After incubation for 1 hour at room temperature, plates were read. Data analysis of emission ratios was according to LanthaScreen Eu Kinase Binding Assay protocol.
Kinase and assay components were adjusted to final concentrations according to the kit protocol. For LRRK2: 5 nM wt human LRRK2, catalytic site, or G2019S human LRRK2, catalytic site (ThermoFisher/USA), 2 nM Eu-Anti-GST Antibody, 10 nM Kinase Tracer 236 in 1× Kinase Buffer A. For NUAK1: 8 nM wt human NUAK1, full length (ThermoFisher/USA), 2 nM Eu-Anti-His Antibody, 5 nM Kinase Tracer 236 in 1× Kinase Buffer A.

IC50, < 10 nM:
Clc1cccc(Cl)c1C1=Nc2c[nH]nc2-c2cccc3cnn1c23 [Compound 309, 4-(2,6-dichlorophenyl)-8H-pyrazolo[4′,3′:4,5][1,3]diazepino[6,7,1-hi]indazole]

These compounds were tested against T2, wt human TYK2, catalytic site (Homo sapiens, UniProt P29597) (assay: HTRF KinEASE assay, TYK2 (Example 72)). Conditions: Example 72 text; read-out: IC50, Inhibitory Activity Toward TYK2.
T2 construct: wt human TYK2, catalytic site; purchased SignalChem/CAN
T2 sequence (P29597 897-1176 limits assumed): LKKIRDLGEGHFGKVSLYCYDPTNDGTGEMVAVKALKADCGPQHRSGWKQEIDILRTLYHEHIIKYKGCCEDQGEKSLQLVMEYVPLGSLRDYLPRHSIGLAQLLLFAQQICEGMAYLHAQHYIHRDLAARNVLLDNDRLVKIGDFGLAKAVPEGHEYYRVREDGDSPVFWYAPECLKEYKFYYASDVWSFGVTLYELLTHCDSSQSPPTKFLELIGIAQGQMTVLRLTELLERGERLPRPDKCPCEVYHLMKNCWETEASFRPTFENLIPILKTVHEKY
Format: biochemical
Method: as §1
Basic protocol for HTRF KinEASE assay (Cisbio/FRA) inhibitor studies involved two steps:
Enzymatic step: Addition of 4 μl of test compound in corresponding DMSO dilutions, 4 μl of kinase/substrate mixture, 2 μl of ATP into 384 well small volume plates. Incubation for at least 30 minutes at room temperature.
Detection step: Addition of 5 μl antibody and 5 μl streptavidin-XL665, read plate after 60 minutes. Data analysis of emission ratios according to KinEASE assay protocol.
Kinase and assay components were adjusted to final concentrations according to the kit protocol. For TYK2: 2 nM wt human TYK2, catalytic site (SignalChem/CAN), 1 μM HTRF KinEASE-TK Substrate-biotin, 1 μM ATP in 1× Kinase Buffer

IC50, < 10 nM:
Fc1cccc(F)c1C1=Nc2c[nH]nc2-c2cccc3ncn1c23 [Compound 301, 3-(2,6-difluorophenyl)-7H-1,2a,4,6,7-pentaazabenzo[cd]cyclopenta[f]azulene]
Fc1cccc(F)c1C1=Nc2c[nH]nc2-c2cccc3cnn1c23 [Compound 302, 4-(2,6-difluorophenyl)-8H-pyrazolo[4′,3′:4,5][1,3]diazepino[6,7,1-hi]indazole]
Fc1cccc(F)c1C1=Nc2cn[nH]c2-c2cnn3c2N1CCC3 [Compound 308, 9-(2,6-difluorophenyl)-3,6,7,8-tetrahydro-2,3,5,5a,8a,10-hexaazabenzo[cd]cyclopenta[h]azulene]
Clc1cccc(Cl)c1C1=Nc2c[nH]nc2-c2cccc3cnn1c23 [Compound 309, 4-(2,6-dichlorophenyl)-8H-pyrazolo[4′,3′:4,5][1,3]diazepino[6,7,1-hi]indazole]
Cc1cn2c3c(cccc13)-c1n[nH]cc1N=C2c1c(F)cccc1F [Compound 313, 10-(2,6-difluorophenyl)-7-methyl-3H-pyrazolo[4′,3′:4,5][1,3]diazepino[6,7,1-hi]indole]
Fc1ccc(F)c(C2=Nc3c[nH]nc3-c3cccc4cnn2c34)c1 [Compound 315, 4-(2,5-difluorophenyl)-8H-pyrazolo[4′,3′:4,5][1,3]diazepino[6,7,1-hi]indazole]
Fc1cccc(F)c1C1=Nc2cn[nH]c2-c2ccc(F)c3cnn1c23 [Compound 317, 4-(2,6-difluorophenyl)-11-fluoro-8H-pyrazolo[4′,3′:4,5][1,3]diazepino[6,7,1-hi]indazole]

Source: patent US20240067655A1 (NEURON23, INC., priority 2020, published 2024)
